This note sets out measurements from patent US20200255492A1, “LEPTIN PEPTIDES AND THEIR USE FOR TREATING NEUROLOGICAL DISORDERS” (UNIVERSITY OF DUNDEE, priority 2017, published 2020).

Series [1] can be described thus: Serum leptin levels by ELISA after injection of hexamers. The note with it: blood serum 24 hours post injection. It is filed as in vivo, mice.
For series [2], the system named is C57/BL6 mice. The series is described as follows: Object-place-context (OPC) recognition task, episodic-like memory. It is filed as in vivo. To be noted: 100 μl IP of 7.8 nM/ml; sample and test phases. As to the method: FIG. 7A, FIG. 7B, FIG. 7C and FIG. 7D show Leptin (116-130) enhances episodic-like memory. FIG. 7A: object-place-context task used to assess episodic-like memory. There are 2 sample phases in which mice are exposed to different copies of 2 different objects (star and hexagon) and allowed to explore for 3 min. In the test phase they see 2 new copies of 1 of the objects. The arrow points to the object that has not been previously seen in that place within that context. FIG. 7B: mean±SEM discrimination index for the 3 groups. *P<0.05. FIG. 7C: total exploration time in the test phase is not different between groups. FIG. 7D: exploration of the novel and familiar objects in the test phase; treatment with leptin or the leptin fragment (116-130) enhanced performance on the episodic-like memory test.
To further assess its therapeutic potential we next asked if this fragment has similar cognitive enhancing properties to the whole leptin molecule. Previous studies indicate that leptin enhances hippocampal-dependent memory (Oomura et al. 2006; Farr et al. 2006), whereas resistance to lep-tin results in impaired spatial memory (Li et al. 2002). We used the object-place-context (OPC) recognition task which models human episodic memory, the first cognitive process to be compromised in the early stages of AD (Swainson et al. 2001). […]

As to “SCSLPQ (listed as Mus musculus) [leptin (116-121)]”, the “serum level of native leptin” value in series [1] is reported as “did not significantly alter the level of native leptin”.
With “leptin: the metabolic hormone leptin, whole (full length) leptin molecule; human leptin from Sigma in SH-SY5Y work”, the overall exploration time result in series [2] was “no change in total levels of exploration between groups”.
As to “CSLPQT (listed as Mus musculus) [leptin (117-122)]”, the “serum level of native leptin” value in series [1] is “did not significantly alter the level of native leptin”.
As for “SCSLPQTSGLQKPES (listed as Mus musculus) [leptin (116-130)]”, in series [2], the overall exploration time entry was “no change in total levels of exploration between groups”.
